Taken from: PubChem BioAssay AID1259254 (NCATS, 2017)

- Aim: 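Genome-wide screen for genes that prevent DNA re-replication in cancer cells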 (primary screen)
- System: human HCT116 colorectal cancer cells
- Reagent: single siRNA against human genes
- Timing: 3 days
- Measured: 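Nuclei stained with Hoechst and imaged; cell-cycle phase assigned by DNA content; G2 share scaled per plate, non-targeting siRNA 0%, GMNN siRNA 100%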
- Reading the numbers: G2 robust z-score and G2 cells, % of GMNN control: higher = more G2 cells, more excess DNA replication; raw share of cells in G2: higher = larger share of cells with G2 DNA content
- Call rule: 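An siRNA counts as active if its G2 robust z-score lies at least 5 MADs above the screen median; here such calls match roughly 38% of GMNN control or more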
This is one part, drawn at random, of about 59,000 reagents tested. Over the whole deposit, about 1,550 (2.6%) were called active. 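G2 share is only a proxy for re-replication; each gene was hit by three separate siRNAs, and active genes were retested.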 Raw values are not corrected between plates. The numbers tell different reagents against one gene apart. Not given: the amount of reagent.

target gene | siRNA no. | G2 robust z-score | G2 cells, % of GMNN control | raw share of cells in G2 (%) | Call
BTBD9 | 1 | 1.86 | 16 | 10.5 | inactive
BTBD9 | 2 | 2 | 17 | 8.41 | inactive
BTBD9 | 3 | 0.95 | 9.65 | 4.64 | inactive
CCR9 | 1 | 6.3 | 47.3 | 22.8 | active
CCR9 | 2 | -0.639 | -1.53 | 3.98 | inactive
CCR9 | 3 | -0.56 | -0.971 | 2.97 | inactive
GUCY1A2 | 1 | 0.0475 | 3.3 | 6.94 | inactive
GUCY1A2 | 2 | -0.326 | 0.676 | 5.29 | inactive
GUCY1A2 | 3 | -0.4 | 0.154 | 4.26 | inactive
CNTNAP2 | 1 | -0.773 | -2.47 | 5.04 | inactive
CNTNAP2 | 2 | -1.21 | -5.57 | 2.34 | inactive
CNTNAP2 | 3 | 0.652 | 7.56 | 6.46 | inactive
PAK4 | 1 | 2.64 | 21.6 | 12.3 | inactive
PAK4 | 2 | 0.88 | 9.16 | 8.52 | inactive
PAK4 | 3 | 0.0274 | 3.16 | 4.69 | inactive
NFATC3 | 1 | -0.327 | 0.669 | 3.73 | inactive
NFATC3 | 2 | 5.39 | 40.9 | 24 | active
NFATC3 | 3 | 2.93 | 23.6 | 11.7 | inactive
NXN | 1 | 0.204 | 4.4 | 7.47 | inactive
NXN | 2 | -0.269 | 1.08 | 4.73 | inactive
NXN | 3 | -0.232 | 1.33 | 4.71 | inactive
RNF10 | 1 | -0.762 | -2.4 | 4.25 | inactive
RNF10 | 2 | 1.07 | 10.5 | 8.33 | inactive
RNF10 | 3 | 3.24 | 25.7 | 12.8 | inactive
FOXN3-AS1 | 1 | 1.77 | 15.4 | 8.63 | inactive
FOXN3-AS1 | 2 | -0.328 | 0.658 | 3.26 | inactive
FOXN3-AS1 | 3 | 4.58 | 35.2 | 17.6 | inactive
RPL28 | 1 | -0.676 | -1.79 | 4.21 | inactive
RPL28 | 2 | 9.93 | 72.8 | 33 | active
RPL28 | 3 | 3.48 | 27.4 | 13.3 | inactive
LOC646471 | 1 | -0.235 | 1.31 | 4.27 | inactive
LOC646471 | 2 | 0.0241 | 3.14 | 4.39 | inactive
LOC646471 | 3 | 0.943 | 9.6 | 6.09 | inactive
PNCK | 1 | 4.28 | 33.1 | 15.9 | inactive
PNCK | 2 | -1.61 | -8.35 | 2.16 | inactive
PNCK | 3 | -0.106 | 2.22 | 4.39 | inactive
PCBP3 | 1 | -0.663 | -1.7 | 2.19 | inactive
PCBP3 | 2 | 0.37 | 5.57 | 8.43 | inactive
PCBP3 | 3 | -0.143 | 1.96 | 4.25 | inactive
SOX17 | 1 | -1.37 | -6.68 | 2.88 | inactive
SOX17 | 2 | 0.113 | 3.76 | 5.68 | inactive
SOX17 | 3 | 0.0325 | 3.2 | 5.39 | inactive
SLC38A12 | 1 | 7.44 | 55.3 | 23.4 | active
SLC38A12 | 2 | 0.655 | 7.58 | 7.46 | inactive
SLC38A12 | 3 | 2.5 | 20.5 | 9.98 | inactive
DEFB127 | 1 | -0.758 | -2.36 | 3.04 | inactive
DEFB127 | 2 | 0.747 | 8.22 | 5.45 | inactive
DEFB127 | 3 | -0.197 | 1.58 | 3.62 | inactive
BBS10 | 1 | 0.678 | 7.74 | 5.52 | inactive
BBS10 | 2 | 4.16 | 32.2 | 20.5 | inactive
BBS10 | 3 | 0.749 | 8.24 | 6.22 | inactive
PTPN21 | 1 | 0.677 | 7.73 | 7.31 | inactive
PTPN21 | 2 | -0.446 | -0.171 | 4.25 | inactive
PTPN21 | 3 | -0.553 | -0.92 | 3.22 | inactive
PRKCI | 1 | 4.45 | 34.3 | 16.9 | inactive
PRKCI | 2 | -1.53 | -7.77 | 2.79 | inactive
PRKCI | 3 | 1.87 | 16.1 | 9.71 | inactive
BROX | 1 | -0.164 | 1.81 | 4.44 | inactive
BROX | 2 | 0.55 | 6.83 | 5.02 | inactive
BROX | 3 | -0.248 | 1.23 | 3.5 | inactive
FUT4 | 1 | 0.195 | 4.34 | 6.81 | inactive
FUT4 | 2 | -1.25 | -5.82 | 3.05 | inactive
FUT4 | 3 | -0.686 | -1.86 | 3 | inactive
OR13D1 | 1 | -0.632 | -1.48 | 3.1 | inactive
OR13D1 | 2 | 0.227 | 4.57 | 4.81 | inactive
OR13D1 | 3 | 0.971 | 9.8 | 6.24 | inactive
TSLIG3A | 1 | -0.775 | -2.48 | 3.48 | inactive
TSLIG3A | 2 | 0.119 | 3.81 | 5.59 | inactive
TSLIG3A | 3 | -0.416 | 0.044 | 3.31 | inactive
